Results taken from PMC10621219.
No constants are given. Whether binding was seen depends on the method and setting. In cells and extracts the contact can be indirect. Some binding calls cover weakened binding; strength is not graded here. Where a sequence is shown, tags or fusion partners need not be part of it.

Chains of the proteins cited; added tags and fusions are not shown.
UniProt Q8VEK3: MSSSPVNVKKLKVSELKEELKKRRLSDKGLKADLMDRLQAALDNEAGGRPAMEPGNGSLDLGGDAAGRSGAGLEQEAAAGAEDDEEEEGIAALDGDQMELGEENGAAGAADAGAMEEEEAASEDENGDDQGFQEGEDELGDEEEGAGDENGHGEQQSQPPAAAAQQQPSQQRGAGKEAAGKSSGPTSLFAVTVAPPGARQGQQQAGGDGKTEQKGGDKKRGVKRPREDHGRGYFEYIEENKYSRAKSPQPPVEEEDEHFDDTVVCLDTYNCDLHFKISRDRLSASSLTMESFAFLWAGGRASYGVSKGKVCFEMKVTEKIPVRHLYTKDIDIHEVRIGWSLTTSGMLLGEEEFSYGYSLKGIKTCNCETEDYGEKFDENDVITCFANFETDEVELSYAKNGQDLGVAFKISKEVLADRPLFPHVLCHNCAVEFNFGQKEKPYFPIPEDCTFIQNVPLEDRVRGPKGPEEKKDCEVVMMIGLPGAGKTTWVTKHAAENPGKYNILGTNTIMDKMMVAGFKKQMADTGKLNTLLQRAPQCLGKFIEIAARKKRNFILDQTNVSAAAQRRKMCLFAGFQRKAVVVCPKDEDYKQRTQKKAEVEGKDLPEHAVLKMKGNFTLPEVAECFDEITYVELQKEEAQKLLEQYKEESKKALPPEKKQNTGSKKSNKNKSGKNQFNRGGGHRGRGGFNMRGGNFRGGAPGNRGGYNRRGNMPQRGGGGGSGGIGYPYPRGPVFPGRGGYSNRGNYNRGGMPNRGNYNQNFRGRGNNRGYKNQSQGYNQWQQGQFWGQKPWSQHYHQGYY

Target: T1, Flag-tagged FAM171B, overexpressed in MB49 cells (UniProt Q14CH0)
T1 sequence: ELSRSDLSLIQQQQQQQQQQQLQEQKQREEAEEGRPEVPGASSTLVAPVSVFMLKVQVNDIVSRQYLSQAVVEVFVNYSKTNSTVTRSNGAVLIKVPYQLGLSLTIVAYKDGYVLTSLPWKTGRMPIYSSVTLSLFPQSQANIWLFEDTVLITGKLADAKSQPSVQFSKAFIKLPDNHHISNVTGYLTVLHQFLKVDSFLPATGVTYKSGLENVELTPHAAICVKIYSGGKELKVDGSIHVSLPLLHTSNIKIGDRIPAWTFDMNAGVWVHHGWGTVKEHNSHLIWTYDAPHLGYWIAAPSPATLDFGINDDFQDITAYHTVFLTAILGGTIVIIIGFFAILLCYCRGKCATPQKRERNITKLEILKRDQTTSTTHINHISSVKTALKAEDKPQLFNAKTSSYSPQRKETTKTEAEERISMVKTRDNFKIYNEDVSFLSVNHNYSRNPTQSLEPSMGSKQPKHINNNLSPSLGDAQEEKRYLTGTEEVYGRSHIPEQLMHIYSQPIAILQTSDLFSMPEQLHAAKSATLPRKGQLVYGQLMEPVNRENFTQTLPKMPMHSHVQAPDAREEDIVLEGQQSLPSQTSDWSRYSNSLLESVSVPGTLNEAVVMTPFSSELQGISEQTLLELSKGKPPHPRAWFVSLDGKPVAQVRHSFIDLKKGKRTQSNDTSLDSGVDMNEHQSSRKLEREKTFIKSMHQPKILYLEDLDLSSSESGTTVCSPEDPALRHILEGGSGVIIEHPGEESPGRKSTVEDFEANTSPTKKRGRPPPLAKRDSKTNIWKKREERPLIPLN
Assay: co-IP; MB49 cells co-transfected with Flag-tagged FAM171B and HA-tagged vimentin or HNRNPU; immunoprecipitation with anti-DYKDDDDK beads and anti-HA beads; western blot with anti-Flag and anti-HA antibodies

## HA-tagged HNRNPU, overexpressed in MB49 cells (from UniProt Q8VEK3 1-800)
  binding: binds
